{
  "sequences": {"note": "Chains of the proteins cited; added tags and fusions are not shown. Residues count along the entry.", "UniProt P02701, residues 25-152": "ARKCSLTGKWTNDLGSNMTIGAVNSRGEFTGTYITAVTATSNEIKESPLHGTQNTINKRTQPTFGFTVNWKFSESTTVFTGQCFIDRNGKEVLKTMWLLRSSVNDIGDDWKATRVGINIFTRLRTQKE"},
  "source": "patent US20230338553A1",
  "binders": {"B1": {"name": "scFv(h-AM1)-BAP (scFv)", "scFv": "DAAQPARRARRTKLGTELGSEVQLLESGGGLVQPGGSLRLSCVASGFTFSSYTMSWVRQAPGKGLEWVSYIHNGGGHTYYADSVKGRFTISRDNSKNTLYLQMNSLRAEDTAVYYCTRRMYYGNSHWYFDVWGAGTRVTITSAKTTPPSVYGGGGSGGGGSGGGGSTNSDIQMTQSPSSLSASVGDRVTITCRTSQSISNYLNWYQQKPGKAPKLLIYYTLKLNSGVPSRFSGSGSGTDFTLTISSLQPEDFATYYCQQSKTLPWTFGGGTKLEIKRADAAPTVSGPEQKLISEEDLNSAVDMSGLNDIFEAQKIEWHEGAPSSHHHHHH", "modifications": "mono-biotinylated at the C-terminal BAP (Bio-Tag)"}, "B2": {"name": "scFv(MR1.1)-BAP (scFv)", "scFv": "DAAQPARRARRTKLGTELGSHMQVKLQQSGGGLVKPGASLKLSCVTSGFTFRKFGMSWVRQTSDKRLEWVASISTGGYNTYYSDNVKGRFTISRENAKNTLYLQMSSLKSEDTALYYCTRGYSPYSYAMDYWGQGTTVTVSSSGGGSGGGGSGGGGSDIELTQSPASLSVATGEKATIRCMTSTDIDDDMNWYQQKPGEPPKFLISEGNTLRPGVPSRFSSSGTGTDFVFTIENTLSEDVGDYYCLQSWNVPLTFGDGTKLEITMSGLNDIFEAQKIEWHEGAPSSGGESSGSGPEQKLISEEDLNSAVDHHHHHH", "modifications": "mono-biotinylated at the BAP (Bio-Tag derived)"}, "B3": {"name": "scFv(MR1.1)-P-BAP (scFv)", "scFv": "DAAQPARRARRTKLGTELGSHMQVKLQQSGGGLVKPGASLKLSCVTSGFTFRKFGMSWVRQTSDKRLEWVASISTGGYNTYYSDNVKGRFTISRENAKNTLYLQMSSLKSEDTALYYCTRGYSPYSYAMDYWGQGTTVTVSSSGGGSGGGGSGGGGSDIELTQSPASLSVATGEKATIRCMTSTDIDDDMNWYQQKPGEPPKFLISEGNTLRPGVPSRFSSSGTGTDFVFTIENTLSEDVGDYYCLQSWNVPLTFGDGTKLEITKLSSKLKVTVNGTAYDVDVDVDKSHENPMGTILFGGGTGGAPAPAAGGAGAGKAGEGEIPAPLAGTVSKILVKEGDTVKAGQTVLVLEAMKMETEINAPTDGKVEKVLVKERDAVQGGQGLIKIGDLELIEGSSGPEQKLISEEDLNSAVDHHHHHH", "modifications": "mono-biotinylated at the C-terminal P-BAP (PSTCD biotin acceptor domain)"}},
  "key": {"avidin [1]": {"target": "avidin (UniProt P02701)", "assay": "non-reducing SDS-PAGE and Western blot of scFv/avidin mixtures"}, "avidin [2]": {"target": "avidin (UniProt P02701)", "assay": "non-reducing SDS-PAGE and Western blot of scFv/avidin mixtures (FIG. 12 legend)"}, "[3]": {"target": "T1, Prostate Stem Cell Antigen (PSCA) (human) (UniProt O43653)", "T1 sequence (looked up)": "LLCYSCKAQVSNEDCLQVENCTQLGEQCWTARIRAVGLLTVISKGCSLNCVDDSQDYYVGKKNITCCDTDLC", "assay": "flow cytometry titration on 293T^PSCA cells, KD calculation"}, "avidin [4]": {"target": "avidin (UniProt P02701)", "assay": "non-reducing SDS-PAGE and Western blot of scFv/avidin mixtures (FIG. 11 legend)"}},
  "note": "No constants are given. Whether binding was seen depends on the method and setting. Some entries that bind do so weakly or less than the wild type.",
  "data": [
    {"binder": "B1", "values": [
      {"measurement": "binding", "setting": "avidin [1]", "value": "binds"},
      {"measurement": "binding", "setting": "avidin [2]", "value": "binds"},
      {"measurement": "binding", "setting": "[3]", "value": "binds"}
    ]},
    {"binder": "B2", "values": [
      {"measurement": "binding", "setting": "avidin [1]", "value": "binds"},
      {"measurement": "binding", "setting": "avidin [2]", "value": "binds"}
    ]},
    {"binder": "B3", "values": [
      {"measurement": "binding", "setting": "avidin [4]", "value": "binds"},
      {"measurement": "binding", "setting": "avidin [1]", "value": "binds"}
    ]}
  ]
}
